Source: paper doi:10.1101/2021.09.14.460283

Sequences of proteins named here, by UniProt entry; tags and fusion partners are left off.
UniProt Q2M2I8: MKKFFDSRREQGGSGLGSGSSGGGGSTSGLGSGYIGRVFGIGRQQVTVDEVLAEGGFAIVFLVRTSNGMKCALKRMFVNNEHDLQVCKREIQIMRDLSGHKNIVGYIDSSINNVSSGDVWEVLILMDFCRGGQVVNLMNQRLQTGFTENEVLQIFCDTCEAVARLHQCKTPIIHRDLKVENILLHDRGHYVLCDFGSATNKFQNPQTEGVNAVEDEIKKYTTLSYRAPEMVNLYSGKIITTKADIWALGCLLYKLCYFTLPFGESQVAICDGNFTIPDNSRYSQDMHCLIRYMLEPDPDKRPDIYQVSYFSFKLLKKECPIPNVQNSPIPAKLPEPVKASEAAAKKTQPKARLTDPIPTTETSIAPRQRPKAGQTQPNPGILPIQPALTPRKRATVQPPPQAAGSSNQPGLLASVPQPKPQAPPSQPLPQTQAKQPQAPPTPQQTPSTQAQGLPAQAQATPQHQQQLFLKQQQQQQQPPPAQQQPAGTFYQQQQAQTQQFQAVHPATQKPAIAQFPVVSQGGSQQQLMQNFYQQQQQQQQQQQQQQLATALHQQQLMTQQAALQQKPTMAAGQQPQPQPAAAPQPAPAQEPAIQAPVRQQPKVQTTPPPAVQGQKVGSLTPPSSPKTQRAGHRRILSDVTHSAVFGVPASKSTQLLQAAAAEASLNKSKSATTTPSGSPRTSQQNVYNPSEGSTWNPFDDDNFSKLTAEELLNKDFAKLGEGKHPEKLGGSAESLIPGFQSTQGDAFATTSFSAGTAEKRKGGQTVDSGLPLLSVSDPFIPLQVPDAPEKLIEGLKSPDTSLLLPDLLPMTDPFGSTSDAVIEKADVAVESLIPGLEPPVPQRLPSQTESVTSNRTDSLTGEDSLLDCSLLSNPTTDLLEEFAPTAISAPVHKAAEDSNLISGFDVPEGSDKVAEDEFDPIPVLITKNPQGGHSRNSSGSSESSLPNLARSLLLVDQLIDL
UniProt Q9NYV4: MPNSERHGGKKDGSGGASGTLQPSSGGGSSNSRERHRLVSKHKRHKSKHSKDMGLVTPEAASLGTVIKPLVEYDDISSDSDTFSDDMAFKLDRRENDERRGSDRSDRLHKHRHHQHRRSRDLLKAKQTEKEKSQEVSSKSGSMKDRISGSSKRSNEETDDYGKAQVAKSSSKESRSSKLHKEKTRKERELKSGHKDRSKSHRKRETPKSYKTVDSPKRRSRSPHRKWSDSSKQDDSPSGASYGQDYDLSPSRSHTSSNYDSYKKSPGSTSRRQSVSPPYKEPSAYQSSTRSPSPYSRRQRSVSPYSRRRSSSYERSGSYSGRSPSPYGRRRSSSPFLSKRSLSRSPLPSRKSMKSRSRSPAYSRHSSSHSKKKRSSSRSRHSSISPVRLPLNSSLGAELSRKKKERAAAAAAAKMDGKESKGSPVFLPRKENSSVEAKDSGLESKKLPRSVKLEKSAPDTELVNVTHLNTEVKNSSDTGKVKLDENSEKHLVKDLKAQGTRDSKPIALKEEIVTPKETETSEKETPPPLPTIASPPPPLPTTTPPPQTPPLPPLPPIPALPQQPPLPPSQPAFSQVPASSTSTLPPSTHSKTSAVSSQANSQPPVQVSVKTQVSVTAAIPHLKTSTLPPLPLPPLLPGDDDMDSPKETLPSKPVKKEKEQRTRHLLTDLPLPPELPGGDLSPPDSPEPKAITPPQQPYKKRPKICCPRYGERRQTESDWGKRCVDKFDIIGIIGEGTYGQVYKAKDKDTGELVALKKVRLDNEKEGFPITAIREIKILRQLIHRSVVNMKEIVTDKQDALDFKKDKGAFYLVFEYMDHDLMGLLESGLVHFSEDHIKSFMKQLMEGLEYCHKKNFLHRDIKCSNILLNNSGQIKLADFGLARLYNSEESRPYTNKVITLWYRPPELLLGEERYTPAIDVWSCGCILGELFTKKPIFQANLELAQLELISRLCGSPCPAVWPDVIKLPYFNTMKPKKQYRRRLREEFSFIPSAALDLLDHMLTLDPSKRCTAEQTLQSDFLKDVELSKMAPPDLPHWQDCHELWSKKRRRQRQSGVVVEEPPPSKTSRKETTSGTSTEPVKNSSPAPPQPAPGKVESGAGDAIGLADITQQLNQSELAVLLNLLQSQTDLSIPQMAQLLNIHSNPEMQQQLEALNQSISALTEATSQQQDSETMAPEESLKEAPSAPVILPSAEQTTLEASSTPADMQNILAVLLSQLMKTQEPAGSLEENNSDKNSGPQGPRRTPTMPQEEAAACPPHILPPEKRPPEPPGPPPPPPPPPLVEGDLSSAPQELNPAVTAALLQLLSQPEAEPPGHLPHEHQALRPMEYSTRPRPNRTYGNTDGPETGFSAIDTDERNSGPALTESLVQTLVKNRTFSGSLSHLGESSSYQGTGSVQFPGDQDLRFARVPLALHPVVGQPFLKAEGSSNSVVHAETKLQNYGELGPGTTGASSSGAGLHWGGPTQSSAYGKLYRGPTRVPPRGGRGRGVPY
UniProt P50613: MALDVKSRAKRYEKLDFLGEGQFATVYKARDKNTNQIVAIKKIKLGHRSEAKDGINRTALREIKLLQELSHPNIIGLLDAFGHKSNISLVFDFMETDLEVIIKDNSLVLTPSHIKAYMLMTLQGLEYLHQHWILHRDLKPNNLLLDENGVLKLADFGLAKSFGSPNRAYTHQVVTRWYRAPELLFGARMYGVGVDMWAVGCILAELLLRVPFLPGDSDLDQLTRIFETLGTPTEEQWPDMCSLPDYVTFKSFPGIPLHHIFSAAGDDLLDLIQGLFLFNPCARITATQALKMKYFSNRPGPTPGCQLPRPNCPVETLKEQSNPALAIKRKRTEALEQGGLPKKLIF
UniProt Q9UHD2: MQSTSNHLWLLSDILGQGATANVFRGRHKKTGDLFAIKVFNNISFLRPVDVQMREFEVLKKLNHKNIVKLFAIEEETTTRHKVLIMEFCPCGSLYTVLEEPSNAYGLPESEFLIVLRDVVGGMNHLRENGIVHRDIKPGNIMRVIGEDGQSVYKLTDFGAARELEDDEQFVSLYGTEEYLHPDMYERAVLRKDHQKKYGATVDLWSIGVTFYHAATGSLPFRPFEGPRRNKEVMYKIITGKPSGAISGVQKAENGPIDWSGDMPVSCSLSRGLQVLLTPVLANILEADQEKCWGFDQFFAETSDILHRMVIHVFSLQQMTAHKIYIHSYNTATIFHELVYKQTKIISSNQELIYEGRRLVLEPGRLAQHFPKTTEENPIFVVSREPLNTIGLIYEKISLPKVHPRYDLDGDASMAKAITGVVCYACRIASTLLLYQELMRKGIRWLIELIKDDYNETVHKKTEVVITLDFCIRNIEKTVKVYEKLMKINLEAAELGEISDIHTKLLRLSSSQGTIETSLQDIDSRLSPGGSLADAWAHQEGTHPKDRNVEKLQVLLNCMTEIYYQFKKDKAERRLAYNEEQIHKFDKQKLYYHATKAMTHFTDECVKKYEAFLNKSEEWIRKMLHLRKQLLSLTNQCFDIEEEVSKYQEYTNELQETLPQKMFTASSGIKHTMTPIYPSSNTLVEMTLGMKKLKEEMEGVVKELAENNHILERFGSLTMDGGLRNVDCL

How the values were obtained:
Experiment in all cases: affinity purification with mass spectrometry
[1] = target: adapter-associated kinase 1 (AAK1) (human (endogenous in FOCUS)) (UniProt Q2M2I8)
[2] = target: CDK12 (human (endogenous in HeLa)) (UniProt Q9NYV4)
[3] = target: EGFR (human (endogenous in HeLa)) (UniProt P00533)
[4] = target: CDK7 (human (endogenous in HeLa)) (UniProt P50613)
[5] = target: TBK1 (human (endogenous in HeLa and FOCUS)) (UniProt Q9UHD2)

B2: Arcadia (RNF111) (protein, UniProt Q6ZNA4 1-994)
chain: MSQWTPEYNELYTLKVDMKSEIPSDAPKTQESLKGILLHPEPIGAAKSFPAGVEMINSKVGNEFSHLCDDSQKQEKEMNGNQQEQEKSLVVRKKRKSQQAGPSYVQNCVKENQGILGLRQHLGTPSDEDNDSSFSDCLSSPSSSLHFGDSDTVTSDEDKEVSVRHSQTILNAKSRSHSARSHKWPRTETESVSGLLMKRPCLHGSSLRRLPCRKRFVKNNSSQRTQKQKERILMQRKKREVLARRKYALLPSSSSSSENDLSSESSSSSSTEGEEDLFVSASENHQNNPAVPSGSIDEDVVVIEASSTPQVTANEEINVTSTDSEVEIVTVGESYRSRSTLGHSRSHWSQGSSSHASRPQEPRNRSRISTVIQPLRQNAAEVVDLTVDEDEPTVVPTTSARMESQATSASINNSNPSTSEQASDTASAVTSSQPSTVSETSATLTSNSTTGTSIGDDSRRTTSSAVTETGPPAMPRLPSCCPQHSPCGGSSQNHHALGHPHTSCFQQHGHHFQHHHHHHHTPHPAVPVSPSFSDPACPVERPPQVQAPCGANSSSGTSYHEQQALPVDLSNSGIRSHGSGSFHGASAFDPCCPVSSSRAAIFGHQAAAAAPSQPLSSIDGYGSSMVAQPQPQPPPQPSLSSCRHYMPPPYASLTRPLHHQASACPHSHGNPPPQTQPPPQVDYVIPHPVHAFHSQISSHATSHPVAPPPPTHLASTAAPIPQHLPPTHQPISHHIPATAPPAQRLHPHEVMQRMEVQRRRMMQHPTRAHERPPPHPHRMHPNYGHGHHIHVPQTMSSHPRQAPERSAWELGIEAGVTAATYTPGALHPHLAHYHAPPRLHHLQLGALPLMVPDMAGYPHIRYISSGLDGTSFRGPFRGNFEELIHLEERLGNVNRGASQGTIERCTYPHKYKKVTTDWFSQRKLHCKQDGEEGTEEDTEEKCTICLSILEEGEDVRRLPCMHLFHQVCVDQWLITNKKCPICRVDIEAQLPSES
binding [2]: binds

B4: GTF2H4 (protein, UniProt Q92759 1-462)
chain: MESTPSRGLNRVHLQCRNLQEFLGGLSPGVLDRLYGHPATCLAVFRELPSLAKNWVMRMLFLEQPLPQAAVALWVKKEFSKAQEESTGLLSGLRIWHTQLLPGGLQGLILNPIFRQNLRIALLGGGKAWSDDTSQLGPDKHARDVPSLDKYAEERWEVVLHFMVGSPSAAVSQDLAQLLSQAGLMKSTEPGEPPCITSAGFQFLLLDTPAQLWYFMLQYLQTAQSRGMDLVEILSFLFQLSFSTLGKDYSVEGMSDSLLNFLQHLREFGLVFQRKRKSRRYYPTRLAINLSSGVSGAGGTVHQPGFIVVETNYRLYAYTESELQIALIALFSEMLYRFPNMVVAQVTRESVQQAIASGITAQQIIHFLRTRAHPVMLKQTPVLPPTITDQIRLWELERDRLRFTEGVLYNQFLSQVDFELLLAHARELGVLVFENSAKRLMVVTPAGHSDVKRFWKRQKHSS
binding [4]: binds

Continued, values first:

binding [1]: binds
B1: REPS2 (protein, UniProt Q8NFH8 1-660)
chain: MEAAAAAAAAAAAAAAAGGGCGSGPPPLLLSEGEQQCYSELFARCAGAAGGGPGSGPPEAARVAPGTATAAAGPVADLFRASQLPAETLHQITELCGAKRVGYFGPTQFYIALKLIAAAQSGLPVRIESIKCELPLPRFMMSKNDGEIRFGNPAELHGTKVQIPYLTTEKNSFKRMDDEDKQQETQSPTMSPLASPPSSPPHYQRVPLSHGYSKLRSSAEQMHPAPYEARQPLVQPEGSSSGGPGTKPLRHQASLIRSFSVERELQDNSSYPDEPWRITEEQREYYVNQFRSLQPDPSSFISGSVAKNFFTKSKLSIPELSYIWELSDADCDGALTLPEFCAAFHLIVARKNGYPLPEGLPPTLQPEYLQAAFPKPKWDCQLFDSYSESLPANQQPRDLNRMEKTSVKDMADLPVPNQDVTSDDKQALKSTINEALPKDVSEDPATPKDSNSLKARPRSRSYSSTSIEEAMKRGEDPPTPPPRPQKTHSRASSLDLNKVFQPSVPATKSGLLPPPPALPPRPCPSQSEQVSEAELLPQLSRAPSQAAESSPAKKDVLYSQPPSKPIRRKFRPENQATENQEPSTAASGPASAATMKPHPTVQKQSSKQKKAIQTAIRKNKEANAVLARLNSELQQQLKEVHQERIALENQLEQLRPVTVL

binding [3]: binds
B3: VAV3 (protein, UniProt Q9UKW4 1-847)
chain: MEPWKQCAQWLIHCKVLPTNHRVTWDSAQVFDLAQTLRDGVLLCQLLNNLRAHSINLKEINLRPQMSQFLCLKNIRTFLTACCETFGMRKSELFEAFDLFDVRDFGKVIETLSRLSRTPIALATGIRPFPTEESINDEDIYKGLPDLIDETLVEDEEDLYDCVYGEDEGGEVYEDLMKAEEAHQPKCPENDIRSCCLAEIKQTEEKYTETLESIEKYFMAPLKRFLTAAEFDSVFINIPELVKLHRNLMQEIHDSIVNKNDQNLYQVFINYKERLVIYGQYCSGVESAISSLDYISKTKEDVKLKLEECSKRANNGKFTLRDLLVVPMQRVLKYHLLLQELVKHTTDPTEKANLKLALDAMKDLAQYVNEVKRDNETLREIKQFQLSIENLNQPVLLFGRPQGDGEIRITTLDKHTKQERHIFLFDLAVIVCKRKGDNYEMKEIIDLQQYKIANNPTTDKENKKWSYGFYLIHTQGQNGLEFYCKTKDLKKKWLEQFEMALSNIRPDYADSNFHDFKMHTFTRVTSCKVCQMLLRGTFYQGYLCFKCGARAHKECLGRVDNCGRVNSGEQGTLKLPEKRTNGLRRTPKQVDPGLPKMQVIRNYSGTPPPALHEGPPLQLQAGDTVELLKGDAHSLFWQGRNLASGEVGFFPSDAVKPCPCVPKPVDYSCQPWYAGAMERLQAETELINRVNSTYLVRHRTKESGEYAISIKYNNEAKHIKILTRDGFFHIAENRKFKSLMELVEYYKHHSLKEGFRTLDTTLQFPYKEPEHSAGQRGNRAGNSLLSPKVLGIAIARYDFCARDMRELSLLKGDVVKIYTKMSANGWWRGEVNGRVGWFPSTYVEEDE

binding [5]: binds
B5: TANK (protein, UniProt Q92844 1-425)
chain: MDKNIGEQLNKAYEAFRQACMDRDSAVKELQQKTENYEQRIREQQEQLSLQQTIIDKLKSQLLLVNSTQDNNYGCVPLLEDSETRKNNLTLDQPQDKVISGIAREKLPKVRRQEVSSPRKETSARSLGSPLLHERGNIEKTFWDLKEEFHKICMLAKAQKDHLSKLNIPDTATETQCSVPIQCTDKTDKQEALFKPQAKDDINRGAPSITSVTPRGLCRDEEDTSFESLSKFNVKFPPMDNDSTFLHSTPERPGILSPATSEAVCQEKFNMEFRDNPGNFVKTEETLFEIQGIDPIASAIQNLKTTDKTKPSNLVNTCIRTTLDRAACLPPGDHNALYVNSFPLLDPSDAPFPSLDSPGKAIRGPQQPIWKPFPNQDSDSVVLSGTDSELHIPRVCEFCQAVFPPSITSRGDFLRHLNSHFNGET

These are yes or no findings as the source states them, for the method shown. Binding seen in cells or lysates may run through a third protein. These calls come from enrichment with a bait or labelling near it, and not all partners need be listed. Each block holds one binder with its values, some of them ahead of it.
